# The other results are listed elsewhere or left out.
# Sequences of proteins named here, by UniProt entry; tags and fusion partners are left off.
# UniProt Q0JBA9, entry or part of it: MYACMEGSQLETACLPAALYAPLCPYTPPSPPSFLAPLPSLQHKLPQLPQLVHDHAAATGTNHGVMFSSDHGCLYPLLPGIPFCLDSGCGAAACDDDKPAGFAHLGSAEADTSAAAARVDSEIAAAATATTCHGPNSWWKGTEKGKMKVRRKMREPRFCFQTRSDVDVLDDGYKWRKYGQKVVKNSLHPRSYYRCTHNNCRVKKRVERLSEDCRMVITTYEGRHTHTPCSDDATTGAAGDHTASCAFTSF
# Molecular target: OsWRKY34 (Oryza sativa, UniProt Q0JBA9 1-250)
# Test: protein-binding microarray (RPBM); PBS, 2% BSA, 51.3 ng/ul salmon testes DNA, 50 uM zinc acetate, 200 nM TF, 25 C, 1 h; high values mean tight binding
# Conditions: protein: recombinant; tags: N-terminal polyhistidine and DsRed monomer fusion (pET32a); label: CyDye5-dUTP incorporated in the synthesized complementary strand; 3' TTTTT single-stranded linker to array surface; dsDNA, one strand shown
# Method in brief: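 The binding signal for each feature is its fluorescence intensity in arbitrary units. An Axon 4000B scanner was used to read a custom Agilent array that had been made double-stranded with Cy5-dUTP primer extension, blocked with 2% BSA, incubated at 25 °C for 1 h with 200 nM protein in PBS, 2% BSA, salmon testes DNA and 50 µM zinc acetate, and washed. The protein was an N-terminal polyhistidine–DsRed transcription factor fusion from E. coli BL21-CodonPlus, purified on Ni–NTA.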
row,Sequence,binding signal
1,CCCCTGCCTGCCTGCCGTCCCACACGGGCACGCCGCGGCGCGGAGTCACCTAGTGCAG,11900 fluorescence intensity (a.u.)
2,GGTGGGATCCTCTGCGGCCTCGTATTTCTATCTGCTTAACCGGAGTCACCTAGTGCAG,8710 fluorescence intensity (a.u.)
3,TTCACCTTGCTCCTCTCTCTCTCTCTCTCTCCTTAATTCTCGGAGTCACCTAGTGCAG,8090 fluorescence intensity (a.u.)
4,GCCATCGCGTACTACACTACACTACACAGTTTGTACCGCGCGGAGTCACCTAGTGCAG,9140 fluorescence intensity (a.u.)
5,GCACGCGCCACACCGGTCCCAAACCTTCCCAACGCGCGCGCGGAGTCACCTAGTGCAG,8770 fluorescence intensity (a.u.)
6,GCCACGCCTCCTATATCCACGCTGCCCAGCGGCGCCCACCCGGAGTCACCTAGTGCAG,8250 fluorescence intensity (a.u.)
7,CGATGTGATTTAGTGAAAAATTTTAGGGTGGGCTAAACAGCGGAGTCACCTAGTGCAG,11500 fluorescence intensity (a.u.)
8,ACTCTTCTACTGCTCCACTCTGCTCTGCTCGCCGCTCCCACGGAGTCACCTAGTGCAG,15100 fluorescence intensity (a.u.)
9,GAGAGGGGATAAGGTATTCGTTTTGTTTGTATGCATGTGACGGAGTCACCTAGTGCAG,14300 fluorescence intensity (a.u.)
10,ACCATGACCGCATCCCTCTACTAAAGTTTAATTGTACTCTCGGAGTCACCTAGTGCAG,8540 fluorescence intensity (a.u.)
11,GCGTCACCATCATGCCCAAGGACATCCAGCTCGCCCGCCGCGGAGTCACCTAGTGCAG,9100 fluorescence intensity (a.u.)
12,CTTACCATTGTGTTTTGCTCTCATGATCGTATTTGTTCACCGGAGTCACCTAGTGCAG,11300 fluorescence intensity (a.u.)
13,ATGTGTGTGTGCTATTTCTCTACGCTTTGCAGGCAACTAGCGGAGTCACCTAGTGCAG,8330 fluorescence intensity (a.u.)
14,ATGTTGGGCCAGGCTCGAGCTCCTCCTCCTCCGCGTCGTCCGGAGTCACCTAGTGCAG,8140 fluorescence intensity (a.u.)
15,GAGTATATGACAGTTGCCGTGTGCTCTTTGATTCGTTTGACGGAGTCACCTAGTGCAG,9970 fluorescence intensity (a.u.)
16,TTGGTCGATCCTTCTTGTTTAATCTGCCTGTGCCTTGATCCGGAGTCACCTAGTGCAG,8280 fluorescence intensity (a.u.)
17,GCCATCAACTATAGGGAACATGTCTTCCCTCAACTATATACGGAGTCACCTAGTGCAG,8360 fluorescence intensity (a.u.)
18,TGTAAGCTTATGTGTCATCTTTCTTTGTTTGTGAAGAACCCGGAGTCACCTAGTGCAG,8190 fluorescence intensity (a.u.)
19,CTTCGCCGATCTATCTCCGTCCATCCTCCGCTCGCCGTCGCGGAGTCACCTAGTGCAG,8080 fluorescence intensity (a.u.)
20,CTTACTCTCCCATTGACTTTCAATCCCAATGTAACCAGCTCGGAGTCACCTAGTGCAG,9380 fluorescence intensity (a.u.)
21,CTCGCATCCATCGCTTCCCATTGCAGGTAATGCATCTCTCCGGAGTCACCTAGTGCAG,8780 fluorescence intensity (a.u.)

# Copied from the list:
# binding signal with ATGTTGGGCCAGGCTCGAGCTCCTCCTCCTCCGCGTCGTCCGGAGTCACCTAGTGCAG reads 8140 fluorescence intensity (a.u.)
# binding signal with ACTCTTCTACTGCTCCACTCTGCTCTGCTCGCCGCTCCCACGGAGTCACCTAGTGCAG reads 15100 fluorescence intensity (a.u.)
# binding signal with GCCATCAACTATAGGGAACATGTCTTCCCTCAACTATATACGGAGTCACCTAGTGCAG reads 8360 fluorescence intensity (a.u.)

# The list continues:

row,Sequence,binding signal
1,TTACAATAGCGACACCGTTTTTAAAACACAACTTTGACTTCGGAGTCACCTAGTGCAG,8540 fluorescence intensity (a.u.)
2,ATGATTTGTTTGATAATGCCCTCTGTTATTAAGGATGATTCGGAGTCACCTAGTGCAG,8090 fluorescence intensity (a.u.)
3,CCGCTGTGGAGTTTTTTACCATTCGTAATTTCTCGTATTTCGGAGTCACCTAGTGCAG,9160 fluorescence intensity (a.u.)
4,CCGCAGCATGTTTATCCTCTACCTATTCCATTTGTAGGTGCGGAGTCACCTAGTGCAG,8200 fluorescence intensity (a.u.)
5,GGACTTCTTTTTTGTTTTTTTACTGATGAAACTTTTTTTTCGGAGTCACCTAGTGCAG,12300 fluorescence intensity (a.u.)
6,GGTTTGTTTGTCGTTCATGTGACGAGCGCATCCGTTTTCCCGGAGTCACCTAGTGCAG,9140 fluorescence intensity (a.u.)
7,ACAACTACGCGTCGTTTTCTTTATTATTTATTCGTGTATACGGAGTCACCTAGTGCAG,8420 fluorescence intensity (a.u.)
8,GATCATTACTATATTTTCCCTGTATTTATAATTCTATGTTCGGAGTCACCTAGTGCAG,8910 fluorescence intensity (a.u.)
9,GTATAAAAATCCTTGTCTCCATCTCTTTTACCTTAATCTCCGGAGTCACCTAGTGCAG,8520 fluorescence intensity (a.u.)
10,TAGATGATGCTGTTAACTTTTTCTCACATGTTTGACCATTCGGAGTCACCTAGTGCAG,12700 fluorescence intensity (a.u.)
11,GAGTCCTTATTCCCAAACCTGTACTTTCCTAGGCCAATGACGGAGTCACCTAGTGCAG,8580 fluorescence intensity (a.u.)
12,CCGCCCAGCCATATGCAGTTGTTCGTACCCGTAATTAACCCGGAGTCACCTAGTGCAG,8930 fluorescence intensity (a.u.)
13,TACCCAACACGCATCCTGGTCGATTCCTCCGAGCAAAAATCGGAGTCACCTAGTGCAG,8540 fluorescence intensity (a.u.)
14,TCATAATGCATCAATCTATTACTTTAGCTATCTATTTATACGGAGTCACCTAGTGCAG,9530 fluorescence intensity (a.u.)
15,AAATTTGTTATTTTTGTTTCGAATTATATAATTCGAATTTCGGAGTCACCTAGTGCAG,9450 fluorescence intensity (a.u.)
16,ACTATCGCTGCCACGACCATTTCTAATCGCCAAGATCGTACGGAGTCACCTAGTGCAG,8970 fluorescence intensity (a.u.)
17,GTTGTGTATTAAATTTAATTTGTTGGCTCGTGTTAAATTACGGAGTCACCTAGTGCAG,10100 fluorescence intensity (a.u.)
18,ACCTCAATGCCGTGCCGCTGCTCTGCTCCCAGTCGCCTACCGGAGTCACCTAGTGCAG,8590 fluorescence intensity (a.u.)
19,CATACTTTTCCAGTACTTGGCTTAACTATTCTTCTCTTAGCGGAGTCACCTAGTGCAG,8220 fluorescence intensity (a.u.)
20,ATGTGTAATTACTTCGAAACTTGAGTCTGCTTCTATTTTTCGGAGTCACCTAGTGCAG,10700 fluorescence intensity (a.u.)
21,CTCCATGCGCTCACGTTCCATCGCGTGGTCCACGCCCTTCCGGAGTCACCTAGTGCAG,9570 fluorescence intensity (a.u.)

# Source: article PMC7819943, “Rice protein-binding microarrays: a tool to detect cis-acting elements near promoter regions in rice”
